Reference: publication PMC5706420
These are yes or no findings as the source states them, for the method shown. Some entries that bind do so weakly or less than the wild type.

By UniProt entry, the sequences of proteins in these tests, tags left out. Where a name states a change or a piece, a line headed by the entry shows the natural chain unless it says otherwise. Residues count along the entry.
UniProt Q96EB6: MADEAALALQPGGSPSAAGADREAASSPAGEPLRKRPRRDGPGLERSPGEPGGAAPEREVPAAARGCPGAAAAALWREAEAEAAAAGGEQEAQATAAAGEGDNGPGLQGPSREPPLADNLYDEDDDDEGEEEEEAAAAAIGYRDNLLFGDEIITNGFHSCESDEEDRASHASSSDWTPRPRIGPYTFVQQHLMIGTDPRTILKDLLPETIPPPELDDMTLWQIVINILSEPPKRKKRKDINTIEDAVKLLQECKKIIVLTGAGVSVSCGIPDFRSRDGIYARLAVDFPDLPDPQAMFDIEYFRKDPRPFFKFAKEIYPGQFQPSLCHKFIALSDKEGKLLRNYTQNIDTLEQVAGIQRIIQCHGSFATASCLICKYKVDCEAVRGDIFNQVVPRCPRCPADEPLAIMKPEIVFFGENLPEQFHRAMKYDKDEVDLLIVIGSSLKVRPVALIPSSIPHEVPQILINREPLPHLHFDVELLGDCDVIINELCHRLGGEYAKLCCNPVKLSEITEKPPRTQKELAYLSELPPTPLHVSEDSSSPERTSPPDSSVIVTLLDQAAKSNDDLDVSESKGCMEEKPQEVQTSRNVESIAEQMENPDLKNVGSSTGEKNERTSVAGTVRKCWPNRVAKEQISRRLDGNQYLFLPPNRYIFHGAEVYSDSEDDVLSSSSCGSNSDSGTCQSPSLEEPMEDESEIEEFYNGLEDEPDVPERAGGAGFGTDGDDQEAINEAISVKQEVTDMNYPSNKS
Sirt1-6xHis AB fragment: residues 1-364 of Q96EB6
UniProt Q15796: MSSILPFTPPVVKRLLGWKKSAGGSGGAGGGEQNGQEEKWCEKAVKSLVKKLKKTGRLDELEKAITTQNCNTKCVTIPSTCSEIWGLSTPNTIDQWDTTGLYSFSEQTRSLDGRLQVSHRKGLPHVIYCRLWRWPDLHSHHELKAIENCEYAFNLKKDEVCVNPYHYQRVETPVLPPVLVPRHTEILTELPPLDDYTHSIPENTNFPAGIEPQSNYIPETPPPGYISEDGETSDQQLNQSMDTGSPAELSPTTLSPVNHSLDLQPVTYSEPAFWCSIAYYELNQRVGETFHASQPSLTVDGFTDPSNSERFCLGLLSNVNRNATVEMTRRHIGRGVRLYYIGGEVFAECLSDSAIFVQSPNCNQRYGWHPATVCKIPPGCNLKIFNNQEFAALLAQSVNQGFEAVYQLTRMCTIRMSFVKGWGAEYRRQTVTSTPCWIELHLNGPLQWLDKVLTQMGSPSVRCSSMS
UniProt P84022: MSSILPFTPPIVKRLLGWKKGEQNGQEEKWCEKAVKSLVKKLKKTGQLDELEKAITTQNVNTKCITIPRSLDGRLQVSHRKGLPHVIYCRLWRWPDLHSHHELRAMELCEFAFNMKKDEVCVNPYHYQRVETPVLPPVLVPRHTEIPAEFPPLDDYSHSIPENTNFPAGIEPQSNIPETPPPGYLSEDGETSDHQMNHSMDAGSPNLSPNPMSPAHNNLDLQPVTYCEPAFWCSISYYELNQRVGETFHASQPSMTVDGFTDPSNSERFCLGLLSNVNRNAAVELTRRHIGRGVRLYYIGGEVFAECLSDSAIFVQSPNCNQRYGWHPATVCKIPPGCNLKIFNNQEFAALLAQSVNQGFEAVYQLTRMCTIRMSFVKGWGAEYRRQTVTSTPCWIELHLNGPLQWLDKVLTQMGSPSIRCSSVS

Columns and labels:
[1] = target: Sirt1^H363Y, His-tagged (pull-down, data not shown) (human) (UniProt Q96EB6); assay: pull-down; data not shown; Sirt1^H363Y in place of wild type Sirt1 with full length GST-Smads and GST-Smad2 fragments; both purified
Sirt1WT-6xHis (human) = Sirt1WT-6xHis (human) (UniProt Q96EB6); assay: pull-down; 4 μg GST-fusion protein mixed with 20 μl (10-20 μg) resin-coupled Sirt1WT-6xHis in 400 μl 50 mM HEPES pH 7.2, 300 mM NaCl, 1% Triton X-100, 10% glycerol, BSA 0.2 mg/ml; 2 h at 4 °C; Western blot; both purified
[2] = target: Sirt1-6xHis AB fragment (human) (UniProt Q96EB6); assay: pull-down; Flag-Smad2 affinity-purified from transfected HEK293T cells (FLAG peptide elution) added to resin-coupled Sirt1-6xHis or its 6xHis fragments; 2 h at 4 °C; Western blot; both purified

| Substance | binding [1] | binding (Sirt1WT-6xHis (human)) | binding [2] |
| --- | --- | --- | --- |
| GST-Smad2 MH2 domain (from UniProt Q15796 274-467) (domain or fragment) | binds weakly | binds weakly |  |
| full length GST-Smad2 (from UniProt Q15796 1-467) | binds |  |  |
| Flag-Smad2 (from UniProt Q15796 1-467) |  |  | binds |

More lines, now with the values ahead:

| binding [1] | binding (Sirt1WT-6xHis (human)) | binding [2] | Substance |
| --- | --- | --- | --- |
| binds | binds |  | full length GST-Smad3 (from UniProt P84022 1-425) |
| binds | binds |  | GST-Smad2 MH1 domain (from UniProt Q15796 10-176) (domain or fragment) |
